Drawing on publication doi:10.1101/2020.11.09.375865, this text covers binding for two molecules.

No constants are given. Whether binding was seen depends on the method and setting. Binding can be weak; no strength is given.

The target in this experiment is PCMD-1 (C. elegans) (UniProt O62071). In words: two-hybrid.

B1: SPD-2 (protein, UniProt P91870 1-824)
chain: MEDDAPMNLCNEQFEEIEDSPIDDNDNESFYNADGDVELEEEEVHETPKNFKNGGRFKTNMTNPKVNDLTTIEEKNEDLRSAASSRSASRPASVMSDKSFSSQFEFQSGGENAIEEYTNQVFADENKADLLFPETSKFMNGASPPKDKHHSWEPSIHHYDKQPPPDIQTNSPVFGNLNHRKNKLIPQARAKPGANDNEIVERDNDENVPTTSDKSAFITSPMNSTNHDEKTSTPKRPTNRKIGQYQGPNFDLSSIYVGSPQHQNTSISTGQQMPTSSYSHAHSETMMTNQTINESMVRRVLNGNNKNQDLFAALEEARKRRAAQPSKPDFRINTTRTRVPIKPTSARHSGNVVSSTSNDNTTAASSKDLTTSRKAMETFRQNASMADATNSNTASMTSILSTISTARTDISRSSRNHGGGFSNTSVSTVIPANNGNVSLSHGRDGRDSVSSVRTMSRASSTSTVYAGSTFSGVSKPLRIHAKRVAFGCVAVGETLRVEVEVENISDRQCLVRASTDSTTPVYQILDNKLTMVDPKKSIKFQVSFSPSSVGRYQVIMSIEVPAQNFIHKIPMWGNGGIAKFVPTSPDLQQTINQSEYAMCTSCAKRISFKISNSAGTRDGFAMIKVFDSAMRQLPDGCVAFFPAPGFIVKKKSDKRVDIRIDSSYIDLHDENNFRTSSSLSTASTTSSFQRRILPGAKFFVHVVWGEETMRTRLRLLEVRTGQHQLIDGHDFTSFQFSDEEVLRAVPVGFPAIKPEDRDLFAASYRSFFINFFTSTTEFRAATSRKKKEICSNDDSTLLETTAFRNQTFVNDVTIVPNTRFSNRK
With B1, the binding entry is “no binding”.

B2: SAS-4 (protein, UniProt P34402 1-808)
chain: MASDENIGADGEQKPSRPFLRKGQGTARFRMPRNNKTSAGAPPTSELSSASSPSINVPRFSLSNALPNSARTVDSGISNEDETRPPTTASLPMDQPSLSSSPENRLNPAPSVAEEHGHSGQHAEEEEDNDTDEVSAMPSFVPDEPSTLVNSDHELSDDALKYKNAAAEFKAFERRMDSMRSASTITTSLATPSSCAPSNSSEPPTRSTPIMNDLGVGPNNHNWPSSMQELSGISLETPQARPLGSNRINQLVRSEAQTGISLLQHHERPTVTAPLRRNDMMNSSRQNPQNGNVQDENRPEHVYDQPIHVPGSSLDRQKLEIEIRRHRNLNIQLRDTIAHLDYAEESVHTTKRQLEEKISEVNNFKKELIEEFKKCKKGVEEEFEKKFEKIKEDYDELYEKLKRDQRDLERDQKILKKGTGERNKEFTETIATLRDKLRASETKNAQYRQDIRVRDEKLKKKDEEIEKLQKDGNRLKSTLQTLEKRVKQLRTEKERDDKEKEMFAKVAMNRKTSNPVPPVLNQSVPISITSNGPSRHPSSSSLTTFRKPSTSNRERGVSWADEPNEQSLEAVPQEFLMMPVKEMPGKFGKCTIYRDSLGETSKVTDTIANGLLFEYSNGDLRWVNRQNAVNIYISAVDKTVRIDLPTYNISIIHTFQRQVEVLRPGNNITLISIKRREVRTDLIYQNGMYKTEIFNRDGRYVTKDFSNQEVSRKYNPGTHTYRDNQCRYVLVTDYNDFELVEPEFRLRWYQGDPTGLNNQYILKIIGRPECSEKTLRLEVNLSTCEGTLETAEMIGDKRRKTTLFQWKK
For the molecule B2, the binding entry is listed as “binds”.
